For 3 substances, binding results are on record in publication PMC10618255, “Cryo-EM structure of human O-GlcNAcylation enzyme pair OGT-OGA complex” (Nature Communications, 2023).

Chains of the proteins cited; added tags and fusions are not shown. Lines headed by an entry give the natural chain unless they say otherwise; changes in a name come on top.
UniProt O15294: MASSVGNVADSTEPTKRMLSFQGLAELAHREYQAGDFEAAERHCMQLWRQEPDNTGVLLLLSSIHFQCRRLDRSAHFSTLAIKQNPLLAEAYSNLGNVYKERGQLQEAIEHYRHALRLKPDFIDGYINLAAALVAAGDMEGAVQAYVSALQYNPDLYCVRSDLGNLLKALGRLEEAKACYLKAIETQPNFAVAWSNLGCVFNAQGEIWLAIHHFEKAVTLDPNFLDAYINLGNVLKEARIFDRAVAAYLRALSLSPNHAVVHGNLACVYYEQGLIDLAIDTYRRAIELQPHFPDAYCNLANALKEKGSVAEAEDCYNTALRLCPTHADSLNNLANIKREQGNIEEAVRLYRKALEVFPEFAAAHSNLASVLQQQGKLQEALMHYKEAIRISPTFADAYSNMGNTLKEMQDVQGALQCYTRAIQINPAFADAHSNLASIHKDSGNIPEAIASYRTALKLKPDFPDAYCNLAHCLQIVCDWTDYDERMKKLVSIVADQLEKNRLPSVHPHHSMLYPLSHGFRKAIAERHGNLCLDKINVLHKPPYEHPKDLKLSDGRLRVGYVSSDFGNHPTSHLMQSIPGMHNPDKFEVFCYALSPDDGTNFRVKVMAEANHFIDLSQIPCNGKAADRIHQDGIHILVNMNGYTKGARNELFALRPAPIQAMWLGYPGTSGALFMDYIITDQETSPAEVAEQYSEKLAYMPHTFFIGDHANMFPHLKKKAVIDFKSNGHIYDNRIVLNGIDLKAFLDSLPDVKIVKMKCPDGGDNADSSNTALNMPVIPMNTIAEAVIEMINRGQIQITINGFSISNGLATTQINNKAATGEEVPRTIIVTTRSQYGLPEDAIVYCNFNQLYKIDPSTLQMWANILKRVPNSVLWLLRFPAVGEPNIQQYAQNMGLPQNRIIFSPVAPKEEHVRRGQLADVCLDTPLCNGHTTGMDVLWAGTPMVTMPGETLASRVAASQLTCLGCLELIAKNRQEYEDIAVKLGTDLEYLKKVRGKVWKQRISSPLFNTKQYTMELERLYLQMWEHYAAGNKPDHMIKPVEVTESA

Results are given in words; binding and its absence hold for the method and conditions named. Binding calls can cover weak binding; strength is not graded here. Tags and fused reporters may be left off the sequences shown.

In the experiment the target is T1, GST-OGA (residues 371-440) (human) (UniProt O60502).
T1 sequence: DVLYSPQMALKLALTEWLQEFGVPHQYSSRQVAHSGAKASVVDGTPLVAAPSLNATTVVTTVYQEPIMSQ
Briefly: pull-down; GST pull-down: GST-OGA bait on Glutathione Sepharose 4B, His6-tagged OGT or mutants as prey; all proteins 1 mg/ml; 25 mM Tris pH 8.0, 150 mM NaCl, 2 mM DTT, 0.05% NP40; 2 h at 4 °C; SDS-PAGE with Coomassie staining; both purified.
Take “human OGT mutated at N332 (TPR10), His6 (from UniProt O15294) (enzyme)”: the binding result is reported as “binds”. The same measure for “human OGT mutated at N366 (TPR11), His6 (from UniProt O15294) (enzyme)”: “binds”.

Take “human OGT mutated at N434 (TPR13), His6 (from UniProt O15294) (enzyme)”: the binding result was “binds”.
